These are yes or no findings as the source states them, for the method shown. Some entries that bind do so weakly or less than the wild type.
Key:
[1] = biological target: VP5 capsid protein of Herpes simplex virus type 2 (HSV-2) (Herpes simplex virus type 2) (UniProt P89442); experiment: cryo-EM structure
[2] = biological target: VP23 triplex protein of Herpes simplex virus type 2 (HSV-2) (Herpes simplex virus type 2) (UniProt P89441); experiment: cryo-EM structure

By UniProt entry, the sequences of proteins in these tests, tags left out.
UniProt P89442: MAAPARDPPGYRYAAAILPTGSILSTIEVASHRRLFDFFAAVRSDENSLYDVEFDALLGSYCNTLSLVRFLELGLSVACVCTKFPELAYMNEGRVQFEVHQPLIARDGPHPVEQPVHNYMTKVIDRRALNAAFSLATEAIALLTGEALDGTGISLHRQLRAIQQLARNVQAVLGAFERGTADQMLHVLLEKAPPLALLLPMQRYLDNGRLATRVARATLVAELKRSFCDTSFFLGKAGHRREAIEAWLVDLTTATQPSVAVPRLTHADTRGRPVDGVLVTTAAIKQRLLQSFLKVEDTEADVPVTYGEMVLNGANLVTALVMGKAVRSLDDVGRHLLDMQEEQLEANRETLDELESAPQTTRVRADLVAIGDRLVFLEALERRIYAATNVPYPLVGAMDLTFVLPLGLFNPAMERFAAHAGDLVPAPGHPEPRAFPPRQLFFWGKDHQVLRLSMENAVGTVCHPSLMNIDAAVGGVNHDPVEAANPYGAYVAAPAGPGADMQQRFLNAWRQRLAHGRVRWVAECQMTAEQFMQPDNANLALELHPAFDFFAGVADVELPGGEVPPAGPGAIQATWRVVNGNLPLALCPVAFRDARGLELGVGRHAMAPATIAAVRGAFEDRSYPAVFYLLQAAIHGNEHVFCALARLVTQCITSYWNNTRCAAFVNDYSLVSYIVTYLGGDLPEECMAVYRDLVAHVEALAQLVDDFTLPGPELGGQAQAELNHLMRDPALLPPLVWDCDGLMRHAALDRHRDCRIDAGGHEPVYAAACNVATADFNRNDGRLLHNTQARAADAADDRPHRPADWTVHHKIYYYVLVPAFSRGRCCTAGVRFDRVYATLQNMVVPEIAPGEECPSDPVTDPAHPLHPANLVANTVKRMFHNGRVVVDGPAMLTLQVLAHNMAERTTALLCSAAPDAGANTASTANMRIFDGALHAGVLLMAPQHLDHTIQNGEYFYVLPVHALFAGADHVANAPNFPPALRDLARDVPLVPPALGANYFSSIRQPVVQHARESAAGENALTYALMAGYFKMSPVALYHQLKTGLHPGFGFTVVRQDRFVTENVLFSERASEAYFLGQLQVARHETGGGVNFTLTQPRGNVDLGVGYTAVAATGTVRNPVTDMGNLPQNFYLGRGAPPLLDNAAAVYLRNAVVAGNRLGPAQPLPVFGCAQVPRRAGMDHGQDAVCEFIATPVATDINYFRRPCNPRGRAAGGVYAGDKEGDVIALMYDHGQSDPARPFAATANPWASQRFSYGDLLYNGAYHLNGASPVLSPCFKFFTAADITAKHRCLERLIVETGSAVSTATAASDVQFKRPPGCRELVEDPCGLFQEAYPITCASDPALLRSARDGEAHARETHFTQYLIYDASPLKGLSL
UniProt P89441: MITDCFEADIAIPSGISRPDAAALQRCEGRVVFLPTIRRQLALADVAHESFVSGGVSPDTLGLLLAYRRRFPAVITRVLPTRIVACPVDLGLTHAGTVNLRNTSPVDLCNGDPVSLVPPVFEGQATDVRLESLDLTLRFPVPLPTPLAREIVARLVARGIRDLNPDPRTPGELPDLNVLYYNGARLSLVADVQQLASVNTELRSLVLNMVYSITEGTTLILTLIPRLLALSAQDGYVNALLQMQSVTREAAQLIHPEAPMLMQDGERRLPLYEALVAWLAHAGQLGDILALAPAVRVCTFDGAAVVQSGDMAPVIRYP
UniProt P89458: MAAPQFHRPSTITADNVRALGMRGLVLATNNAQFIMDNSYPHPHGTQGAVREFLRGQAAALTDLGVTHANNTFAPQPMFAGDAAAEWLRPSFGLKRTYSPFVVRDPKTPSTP
UniProt P89461: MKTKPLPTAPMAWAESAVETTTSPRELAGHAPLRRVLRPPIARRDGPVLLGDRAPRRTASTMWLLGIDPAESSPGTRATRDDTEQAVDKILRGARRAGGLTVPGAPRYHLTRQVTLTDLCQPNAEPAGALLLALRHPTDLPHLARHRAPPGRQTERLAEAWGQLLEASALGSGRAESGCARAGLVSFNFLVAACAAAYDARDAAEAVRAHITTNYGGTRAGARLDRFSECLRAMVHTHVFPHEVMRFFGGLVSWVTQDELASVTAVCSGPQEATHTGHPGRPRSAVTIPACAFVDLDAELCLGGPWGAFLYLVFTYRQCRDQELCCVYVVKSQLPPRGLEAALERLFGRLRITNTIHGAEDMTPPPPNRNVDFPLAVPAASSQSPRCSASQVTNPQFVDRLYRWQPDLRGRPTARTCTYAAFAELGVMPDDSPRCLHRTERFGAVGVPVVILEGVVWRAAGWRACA

In the case of “VP26 capsid protein of Herpes simplex virus type 2 (HSV-2) (from UniProt P89458 1-112)”, the binding [1] is reported as “binds”.

“VP19C triplex protein of Herpes simplex virus type 2 (HSV-2) (from UniProt P89461 1-466)” was tested, and the binding [2] was “binds” and the binding [1] was “binds”.

“VP23 triplex protein of Herpes simplex virus type 2 (HSV-2) (from UniProt P89441 1-318)” was tested, and the binding [1] was “binds”.
